Measured values from patent US9050249B2, “Oral pharmaceutical compositions in timed-release particle form and fast-disintegrating tablets containing this composition” (ASTELLAS PHARMA INC., priority 2004, dated 2015).

Assay: Sensory tests (bitter taste and astringent taste)
Assay type: in vivo, healthy adults
Design: key: −: Did not notice an unpleasant taste; ±: noticed a slight change in taste, but it could be tolerated; +: noticed an unpleasant taste; ++: noticed a strong unpleasant taste
Conditions: 50 mg imipramine hydrochloride
[1] = Tester No.1, 1 minute after administration
[2] = Tester No.1, 3 minutes after administration
[3] = Tester No.1, 5 minutes after administration
[4] = Tester No.1, 7 minutes after administration
[5] = Tester No.2, 1 minute after administration
[6] = Tester No.2, 3 minutes after administration
[7] = Tester No.2, 5 minutes after administration
[8] = Tester No.2, 7 minutes after administration
[9] = Tester No.3, 1 minute after administration
[10] = Tester No.3, 3 minutes after administration
[11] = Tester No.3, 5 minutes after administration
[12] = Tester No.3, 7 minutes after administration

CN(C)CCCN1c2ccccc2CCc2ccccc21 [imipramine hydrochloride]
+: Astringent taste [2] | Bitter taste [2] | Astringent taste [3] | Astringent taste [6] | Bitter taste [6] | Astringent taste [7] | Astringent taste [8] | Astringent taste [9] | Bitter taste [9] | Astringent taste [10] | Astringent taste [11] | Astringent taste [12]
±: Bitter taste [1] | Astringent taste [5] | Bitter taste [5] | Bitter taste [10]
−: Astringent taste [1] | Bitter taste [3] | Bitter taste [4] | Bitter taste [7] | Bitter taste [8] | Bitter taste [11] | Bitter taste [12]
++: Astringent taste [4]

Counter-ions that a name gives are not always drawn.
